No constants are given. Whether binding was seen depends on the method and setting. In cells and extracts the contact can be indirect. For some of these results: Sequences can lack the tags named with a protein. Values belong to the substance of their own block, whether it stands above or below them.
Legend:
[1] = target: T1, ARMC12 in pBiFC-VN173, wild type (human) (UniProt Q5T9G4); assay: split reporter; BiFC: pBiFC-VN173-ARMC12 and pBiFC-VC155-RBBP4 cotransfected into SH-SY5Y cells for 24 h, grown a further 10 h at 37 C, confocal microscopy
T1 sequence: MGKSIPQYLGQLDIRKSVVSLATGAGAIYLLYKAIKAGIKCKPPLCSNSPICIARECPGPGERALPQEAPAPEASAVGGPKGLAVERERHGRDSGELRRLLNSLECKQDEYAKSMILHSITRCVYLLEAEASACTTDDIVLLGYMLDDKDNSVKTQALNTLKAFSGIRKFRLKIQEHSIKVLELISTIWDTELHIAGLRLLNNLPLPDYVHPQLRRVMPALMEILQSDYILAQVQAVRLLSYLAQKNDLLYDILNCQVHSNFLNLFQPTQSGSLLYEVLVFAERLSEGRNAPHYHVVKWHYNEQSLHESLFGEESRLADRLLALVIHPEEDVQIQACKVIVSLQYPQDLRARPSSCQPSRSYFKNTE

The chains behind the UniProt entries cited, without tags or fusion partners. Where a name states a change or a piece, a line headed by the entry shows the natural chain unless it says otherwise.
UniProt Q09028: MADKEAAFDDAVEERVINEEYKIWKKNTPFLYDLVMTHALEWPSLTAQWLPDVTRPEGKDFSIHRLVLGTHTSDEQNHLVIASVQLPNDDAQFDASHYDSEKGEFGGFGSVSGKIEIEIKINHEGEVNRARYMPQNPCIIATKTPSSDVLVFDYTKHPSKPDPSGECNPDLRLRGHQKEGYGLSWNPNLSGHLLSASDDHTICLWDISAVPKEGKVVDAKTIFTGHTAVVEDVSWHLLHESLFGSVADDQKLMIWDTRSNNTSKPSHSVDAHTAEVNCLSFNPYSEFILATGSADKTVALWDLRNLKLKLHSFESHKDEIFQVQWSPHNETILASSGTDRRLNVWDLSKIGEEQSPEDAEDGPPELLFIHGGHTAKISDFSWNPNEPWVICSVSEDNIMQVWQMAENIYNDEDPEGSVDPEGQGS

[2] = target: T2, FLAG-tagged ARMC12, wild type (human) (UniProt Q5T9G4); assay: co-IP; SH-SY5Y cells cotransfected with FLAG-tagged ARMC12 (wild type, truncates or mutant) and HA-tagged RBBP4 (wild type, truncates or mutant); FLAG and HA antibodies, western blot
T2 sequence: T1 sequence

[3] = target: ARMC12 with mutation of Valine217 in pBiFC-VN173 (human) (UniProt Q5T9G4); assay: split reporter; BiFC: pBiFC-VN173-ARMC12 and pBiFC-VC155-RBBP4 cotransfected into SH-SY5Y cells for 24 h, grown a further 10 h at 37 C, confocal microscopy
[4] = target: FLAG-tagged ARMC12 with mutation of Valine217 (human) (UniProt Q5T9G4); assay: co-IP; SH-SY5Y cells cotransfected with FLAG-tagged ARMC12 (wild type, truncates or mutant) and HA-tagged RBBP4 (wild type, truncates or mutant); FLAG and HA antibodies, western blot

- binding [1]: no binding
Substance: RBBP4 with mutation of Valine35 in pBiFC-VC155 (from UniProt Q09028)

- binding [2]: no binding
Substance: HA-tagged RBBP4 with mutation of Valine35 (from UniProt Q09028)

- binding [3]: no binding
Substance: RBBP4 in pBiFC-VC155, wild type (from UniProt Q09028 1-425)

- binding [4]: no binding
Substance: HA-tagged RBBP4, wild type (from UniProt Q09028 1-425)
